Among all 340,000 compounds or so, about 170 (0.05%) were called active. The inconclusive results got no clear call from the source; some entries with a clear call stand among them for comparison. Calls follow the shape of the dose curve; as a rule, active = well fitted inhibition curve with a large enough effect in the signal ratio, with a control signal flat (not every such curve was filed as active); inconclusive = small, poorly fitted or top-dose-only effect, or effect the other way, or a change in a side signal; inactive = flat fitted curve, though single readings scatter; the % refers to the signal ratio. Potencies of inconclusive entries are doubtful fits and often do not repeat.
Assay: qHTS Assay to Find Inhibitors of Chronic Active B-Cell Receptor Signaling;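 as to activity change, negative = inhibition: plate controls were basal doxycycline-induced cells for no effect and cells given 10 µM MG132 for full effect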
Details: ABC-DLBCL IkBa-CBG/CBR reporter, luminescence ratio (green luciferase fused to IkBa over red control in TMD8 lymphoma cells), 4 h; activity change, negative = inhibition: at 46.1 µM (top of the series)
Summary of the method: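 Cell line TMD8 (human ABC DLBCL), stably expressing tet-inducible CBG68-IkBa fusion and CBR; IMDM/0.5% FBS; cpd up to 46 uM; dox induction, 4 h, 37C/5% CO2; dual luminescence; green/red ratio; MG132 control.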
Potency is read from the fitted curve at half-maximal effect.

Structure (SMILES)	activity change, negative = inhibition	Potency
O=C1C2CCCN2C(c2cccs2)N1c1ccc(Cl)cc1 (stereo not given)	inconclusive: 3.98%	–
CCNS(=O)(=O)c1ccc(NS(=O)(=O)c2cc(C)ccc2C)cc1	inconclusive: 13.6%	–
COc1cccc(C(=O)Nc2ccccc2)c1	inconclusive: -22.4%	–
O=C(Nc1c2c(nn1-c1ccccc1)CS(=O)(=O)C2)c1ccc2c(c1)OCO2	inconclusive: 1.12%	–
Cc1cc(C)nc(NC(=O)c2cc(-c3ccc4c(c3)OCO4)nc3ccccc23)c1	inconclusive: 3.95%	–
COC(=O)C1=C(C)N(Cc2ccccc2)C(=NCC(C)C)N[C@H]1c1ccc(Br)cc1	–	inconclusive: 35.5 µM [rising, partial curve, poor fit]
Nc1ncc([N+](=O)[O-])c(N2CCCCCC2)n1	inconclusive: -30.5%	–
Cc1ccc(S(=O)(=O)N2CCSC2c2ccco2)cc1 (stereo not given)	inactive: -0.673%	–
O=c1c(Cl)c(N/N=C/c2ccc(Br)cc2)cnn1-c1ccccc1	inconclusive: -17.2%	–
C=CC[C@H](CC(=O)N(CCO)Cc1ccccc1)C(=O)N[C@H](COC(=O)[C@@H](CC=C)CC(=O)OC(C)(C)C)Cc1c[nH]c2ccccc12	inconclusive: -1.41%	–
Fc1ccc2cc(-c3ccccc3F)ncc2c1	inactive: -1.58%	–
Cc1cccc(COc2ccccc2C(=O)OCC(=O)N(C)c2c(N)n(Cc3ccccc3)c(=O)[nH]c2=O)c1	inconclusive: 2.83%	–
COc1ccccc1CNc1ncnc2c1nnn2C	inconclusive: -14.3%	–
CN(C)c1oc(-c2ccccc2Cl)nc1P(=O)(c1ccccc1)c1ccccc1	inactive: 7.07%	–
COc1ccc(C2C(C(=O)c3ccco3)=C(O)C(=O)N2CCN2CCOCC2)c(OC)c1 (stereo not given)	inconclusive: 2.55%	–
O=C(NCc1ccc2c(c1)CCN2C(=O)c1ccncc1)c1ccccc1F	inactive: -2.54%	–
CC(=O)Nc1ccc(S(=O)(=O)NCC(=O)OCC(=O)NCc2ccc3c(c2)OCO3)cc1	inconclusive: -0.317%	–
COCCN(C(=O)CSc1nnc(-c2cccc(OC)c2)n1C)c1c(N)n(Cc2ccccc2)c(=O)[nH]c1=O	inconclusive: 6.39%	–
Cc1ccccc1-c1nnn(Cc2cccc(S(=O)(=O)N3CCOCC3)c2)n1	inconclusive: -4.43%	–
O=C(N/N=C/c1ccccc1O)c1cc(=O)[nH]c2ccccc12	inconclusive: 5.29%	–
N#C/C(=C\c1ccc([N+](=O)[O-])o1)c1nc2ccccc2[nH]1	inactive: -5.17%	–
COc1cc(C2Nc3cc(C)c(C)cc3NC3=C2C(=O)CC(C)(C)C3)ccc1OC(C)=O (stereo not given)	inactive: 3.67%	–

Reprinted from the entries so far (18 entries):
Structure (SMILES)	activity change, negative = inhibition	Potency
O=C(Nc1c2c(nn1-c1ccccc1)CS(=O)(=O)C2)c1ccc2c(c1)OCO2	inconclusive: 1.12%	–
Cc1cc(C)nc(NC(=O)c2cc(-c3ccc4c(c3)OCO4)nc3ccccc23)c1	inconclusive: 3.95%	–
COC(=O)C1=C(C)N(Cc2ccccc2)C(=NCC(C)C)N[C@H]1c1ccc(Br)cc1	–	inconclusive: 35.5 µM [rising, partial curve, poor fit]
Nc1ncc([N+](=O)[O-])c(N2CCCCCC2)n1	inconclusive: -30.5%	–
Cc1ccc(S(=O)(=O)N2CCSC2c2ccco2)cc1 (stereo not given)	inactive: -0.673%	–
O=c1c(Cl)c(N/N=C/c2ccc(Br)cc2)cnn1-c1ccccc1	inconclusive: -17.2%	–
C=CC[C@H](CC(=O)N(CCO)Cc1ccccc1)C(=O)N[C@H](COC(=O)[C@@H](CC=C)CC(=O)OC(C)(C)C)Cc1c[nH]c2ccccc12	inconclusive: -1.41%	–
Fc1ccc2cc(-c3ccccc3F)ncc2c1	inactive: -1.58%	–
Cc1cccc(COc2ccccc2C(=O)OCC(=O)N(C)c2c(N)n(Cc3ccccc3)c(=O)[nH]c2=O)c1	inconclusive: 2.83%	–
COc1ccccc1CNc1ncnc2c1nnn2C	inconclusive: -14.3%	–
CN(C)c1oc(-c2ccccc2Cl)nc1P(=O)(c1ccccc1)c1ccccc1	inactive: 7.07%	–
COc1ccc(C2C(C(=O)c3ccco3)=C(O)C(=O)N2CCN2CCOCC2)c(OC)c1 (stereo not given)	inconclusive: 2.55%	–
O=C(NCc1ccc2c(c1)CCN2C(=O)c1ccncc1)c1ccccc1F	inactive: -2.54%	–
CC(=O)Nc1ccc(S(=O)(=O)NCC(=O)OCC(=O)NCc2ccc3c(c2)OCO3)cc1	inconclusive: -0.317%	–
COCCN(C(=O)CSc1nnc(-c2cccc(OC)c2)n1C)c1c(N)n(Cc2ccccc2)c(=O)[nH]c1=O	inconclusive: 6.39%	–
Cc1ccccc1-c1nnn(Cc2cccc(S(=O)(=O)N3CCOCC3)c2)n1	inconclusive: -4.43%	–
O=C(N/N=C/c1ccccc1O)c1cc(=O)[nH]c2ccccc12	inconclusive: 5.29%	–
N#C/C(=C\c1ccc([N+](=O)[O-])o1)c1nc2ccccc2[nH]1	inactive: -5.17%	–

Additional records

Structure (SMILES)	activity change, negative = inhibition	Potency
CCOC(=O)N1CCN(C(=O)c2ccc3c(c2)N(Cc2ccc(C)cc2)CCS3)CC1	inconclusive: 9.99%	–
CCCCC(=O)NNC(=S)NC(=O)c1ccc(C)cc1	inconclusive: 4.3%	–
c1ccc2c(CSCc3nc4ccccc4[nH]3)cccc2c1	–	inconclusive: 35.5 µM [falling, single point]
Cc1ccc(S(=O)(=O)CCc2nnc(NC(=O)CCl)s2)cc1C	inactive: 5.37%	–
Clc1ccc(/C=N/NC2=Nc3cccc4cccc2c34)cc1	inconclusive: -22.3%	–
CC1=CC(c2ccccc2)=Nc2ccc(C)cc2N1	inconclusive: -9.54%	–
CCOC(=O)N1CCN(C(=O)c2cc3c(=O)[nH]c4ccccc4c3s2)CC1	inconclusive: 10.8%	–
Cc1ccc(-n2nc3c(=O)n(C(C)C(=O)NC4CC4)nc(C)c3c2C)cc1 (stereo not given)	inactive: 2.01%	–
CCN(CC)S(=O)(=O)c1ccc(Cl)c(NC(=O)CSc2cccc[n+]2[O-])c1	inactive: -9.84%	–
O=C(N/N=C/c1cccc(F)c1)c1cc(-c2ccco2)nc2ccccc12	inactive: -1.44%	–
Cc1nc2ccccc2c(=O)n1-c1ccc(NC(=O)c2ccccc2[N+](=O)[O-])cc1	inactive: -0.745%	–
CCn1c(SCC(=O)Nc2cc(C)c(Cl)cc2OC)nnc1-c1ccco1	inconclusive: 7.45%	–
COC(=O)c1[nH]c2c(c1C)C(=O)CC(c1cccs1)C2 (stereo not given)	inconclusive: -3.05%	–
Cc1ccc(NC2=Nc3ccccc3N3C2=Nc2c(c(C)nn2-c2ccccc2)C3c2ccc(O)c(O)c2)cc1 (stereo not given)	inactive: 9.31%	–
CN(C)CCCN(C(=O)/C=C/c1cccs1)c1nc2ccc(F)cc2s1	inconclusive: 19.9%	–
Cc1cccc(C(=O)NNC(=O)c2c(-c3ccccc3Cl)noc2C)c1O	inactive: 4.14%	–
Cc1cccc(C)c1Nc1nnc(SCc2nc3ccccc3s2)s1	–	inconclusive: 0.651 µM [rising, full curve]
O=C(Nc1ccc(Cc2ccncc2)cc1)c1ccc(Cl)c([N+](=O)[O-])c1	inconclusive: -8.15%	–
COc1ccc(/C=C/C(=O)Nc2cc(=O)n(C)c(=O)n2C)cc1	inconclusive: 5.11%	–
Cc1ccsc1CCNC(=O)C1CCC(=O)N(CCc2cccc(F)c2)C1 (stereo not given)	inactive: -0.626%	–
O=C(NC(=S)Nc1ccc2oc(=O)ccc2c1)c1ccc(-c2cccc(Cl)c2Cl)o1	–	inconclusive: 14.6 µM [falling, partial curve]
Cc1cc(NCCCOC(C)C)n2c(nc3ccccc32)c1C#N	inactive: 6.83%	–

Structure (SMILES)	activity change, negative = inhibition	Potency
CCN1CCN(CC(=O)N2c3ccccc3Sc3ccccc32)CC1	inconclusive: 0.604%	–
CCC(C)OC(=O)n1ccc(C(=O)Nc2nccs2)n1 (stereo not given)	inconclusive: 0.435%	–
Cc1c(C(=O)N2CCCCC2)c(S(=O)(=O)N(C)Cc2ccccc2)c(C)n1C	inactive: -5.35%	–
COC(=O)N/N=C\c1c(C)nn(-c2ccccc2)c1Cl	–	inconclusive: 29.1 µM [falling, single point]
CCC(=O)NNc1ncnc2c1cnn2-c1ccc(C)c(Cl)c1	inconclusive: 6.36%	–
COc1cccc(CNc2nnnn2C)c1OC	inactive: 0.79%	–
CCC(=O)C1=C(c2ccc(F)cc2)N(C(=O)CC)n2c(nnc2-c2ccc(OC)cc2)S1	–	inconclusive: 31.6 µM [falling, single point]
COC(=O)c1c(NC(=O)CN(c2ccc(C)c(C)c2)S(C)(=O)=O)sc2c1CCCC2	inconclusive: 27.6%	–
COCCNC(=O)c1onc(CSc2ccccc2F)c1C(=O)O	–	inconclusive: 22.4 µM [falling, single point]
Fc1ccc(CNCc2cccc(Br)c2)cc1	inconclusive: 8.79%	–
COc1ccc(/C(O)=C(\C#N)c2nc3ccccc3n2C)cc1OC	–	inconclusive: 22.4 µM [falling, single point]
COc1ccc(NC(=S)N/N=C/c2ccc(F)cc2)cc1OC	–	inconclusive: 22.4 µM [falling, single point]
O=C(Nc1cccc2nsnc12)c1cccnc1Cl	inactive: -7.11%	–
Cc1cc(C)c(NC(=O)CN2C(=O)NC3(CCCCC3)C2=O)c(C)c1	inconclusive: -3.5%	–
Cc1c(CC(=O)NCC(=O)NCC(=O)O)c(=O)oc2cc3oc4c(c3cc12)CCCC4	inconclusive: 3.24%	–
O=C(CSC1=NCCS1)Nc1ccc(S(=O)(=O)N2CCCCCC2)cc1	inconclusive: -16.2%	–
CC1CCN(CCn2c(=S)[nH]c3cc4c(cc3c2=O)OCO4)CC1	inactive: 8.11%	–
COc1cc(C(=O)NC(CCSC)C(=O)OCC(=O)C(C)(C)C)cc(OC)c1OC (stereo not given)	–	inconclusive: 12.6 µM [falling, partial curve, poor fit]
CC(C(=O)c1ccc(-c2ccccc2)cc1)[n+]1ccccc1 (stereo not given)	inactive: 6.07%	–
COC(=O)c1sc(NC(=S)NC(=O)c2ccccc2)nc1C	inactive: -0.0677%	–
COc1ccccc1NC(=O)COc1cc(Br)c(CNCCCN2CCOCC2)cc1OC	inconclusive: -0.468%	–
O=C(O)CN(c1ccccc1)S(=O)(=O)c1cc(C(F)(F)F)cc(C(F)(F)F)c1	inactive: 6.69%	–

Structure (SMILES)	activity change, negative = inhibition	Potency
O=C(CSc1nc2ccccc2c(=O)n1-c1ccccc1)N1CCCc2ccccc21	inactive: -3.93%	–
CN(CCC#N)C(=O)COC(=O)c1ccc2[nH]c3c(c2c1)CCCC3	inconclusive: 17.8%	–
Cc1ccc(C(=O)CSc2nnc3c4ccccc4nc(C(C)(C)C)n23)cc1	inactive: -1.43%	–
COc1ccc(S(=O)(=O)N(C)CC(=O)NCCCn2ccnc2)cc1Cl	inconclusive: 6.76%	–
O=C(O)/C=C/C(=O)Nc1ccc(O)cc1	inconclusive: 16.8%	–
COc1cccc(N2CCN(Cc3nc(N)nc(Nc4ccccc4OC)n3)CC2)c1	inconclusive: -2.82%	–
COc1ccc2ccccc2c1CNC(=O)CC1C(=O)NCCN1CC(C)(C)C (stereo not given)	inactive: 1.27%	–
CC(=O)c1cccc(NC(=S)NC(=O)c2cccc(Cl)c2)c1	inconclusive: -6.96%	–
O=C(COc1ccc(Br)cc1)Nc1nnc(-c2cccnc2)s1	inconclusive: 0.851%	–
Cc1cc(NC(=O)c2ccc(S(=O)(=O)Nc3ccccc3)cc2)no1	inconclusive: 9.78%	–
Cn1c(SCC(=O)NCCNC(=O)CSc2nnc(C(F)(F)F)n2C)nnc1C(F)(F)F	inactive: -10.5%	–
COc1ccc(NC(=O)N(Cc2ccc(C)cc2)Cc2cccnc2)c(OC)c1	inconclusive: 12.9%	–
COc1ccc(NC(=O)C(=O)N/N=C(\C)CC(=O)Nc2cc(C)ccn2)c(OC)c1	–	inconclusive: 22.4 µM [falling, single point]
Cc1cc(C)cc(N(C(=O)c2ccccn2)C(C(=O)NC2CCCCC2)c2cccs2)c1 (stereo not given)	inactive: 0.0536%	–
COc1cc(C(=O)NC(=S)NNC(=O)c2ccc3c(c2)OCO3)cc(OC)c1OC	–	inconclusive: 15.8 µM [falling, partial curve]
Cc1cc(C)c(CN2CCC(n3nccc3NC(=O)C3CCCC3)CC2)cc1C	inconclusive: -1.87%	–
COc1ccc2nc(SCCC(=O)O)cc(C)c2c1	inconclusive: -16.3%	–
Cn1c(SCc2ccc(Br)cc2)nnc1-c1ccccn1	inconclusive: 5.7%	–
O=Cc1c[nH]c2ccc(OCc3ccccc3)cc12	inconclusive: 2.21%	–
